For part of these data: Weaker means in comparison with the reference protein, sequence or condition of that experiment. For part of these data: Where a protein sequence is shown, tags need not be part of it. For part of these data: For at least one entry, the source does not settle the construct or the ends of the probe. For part of these data: Where cells or extracts were used, other partners may take part. For part of these data: No signal at the amounts used counts as a negative.
Legend:
[1] = molecular target: Alba (Sulfolobus acidocaldarius) (UniProt Q4J973); assay: DNA affinity pull-down, mass spectrometry; details: 5'-biotin on bottom strand; protein in an extract; label: biotin
[2] = molecular target: T1, UBP (Saci_0847) (Sulfolobus acidocaldarius) (UniProt Q4JAG5); assay: DNA affinity pull-down, mass spectrometry; details: 5'-biotin on bottom strand; protein in an extract; label: biotin
T1 sequence (looked up, limits assumed): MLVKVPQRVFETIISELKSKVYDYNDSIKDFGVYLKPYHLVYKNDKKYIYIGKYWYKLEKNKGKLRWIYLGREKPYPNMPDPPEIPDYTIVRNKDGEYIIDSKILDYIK

Protein sequences, listed by entry. Tags and fused reporters are not part of them. Lines headed by an entry give the natural chain unless they say otherwise; changes in a name come on top.
UniProt Q4J973: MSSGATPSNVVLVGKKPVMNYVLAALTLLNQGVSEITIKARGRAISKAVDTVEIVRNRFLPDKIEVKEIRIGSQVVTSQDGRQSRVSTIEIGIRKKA

[3] = molecular target: T2, UBP (Sulfolobus islandicus REY15A) (UniProt F0NFD3); assay: EMSA; details: EMSA: 50 mM K-acetate, 20 mM Tris-acetate, 10 mM Mg-acetate, 1 mM DTT, pH 7.9, 5-10% glycerol, 70 mM NaCl, 800 ng salmon sperm DNA per 10 ul, room temperature 10 min, recombinant protein, residues 1-111, label: 5'-32P
T2 sequence (looked up): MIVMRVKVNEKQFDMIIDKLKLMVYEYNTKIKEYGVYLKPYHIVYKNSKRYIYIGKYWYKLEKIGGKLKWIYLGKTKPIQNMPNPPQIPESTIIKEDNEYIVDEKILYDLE

| Sequence | binding result [1] | binding result [2] | binding result ([3]; greatly reduced) | binding result ([3]; complex yield reduced, unbound DNA profile similar to WT) |
| --- | --- | --- | --- | --- |
| GCTTGGTTTACGGCGCACCCATCAATATTT (double strand) [CTRL30 (mutated ucm)] | binds | no binding | – | – |
| TTGTTATAATTAGATAACCATGCGCACCCCTAATTGTATAAGAATGAAAT (double strand) [M7 50 bp (P11/P12)] | – | – | binds more weakly | – |
| TTGTTATAATTCTCGCCAACGTATACAAAAGAATTGTATAAGAATGAAAT (double strand) [M6 50 bp (P9/P10)] | – | – | – | binds more weakly |
| GCTTGGTTTAATTATACAAACTCAATATTT (double strand) [UCM30] | binds | binds | – | – |

Source: publication PMC12141716
